According to doi:10.1101/2020.05.20.107664:
These are yes or no findings as the source states them, for the method shown. Binding seen in cells or lysates may run through a third protein. Some binding calls cover weakened binding; strength is not graded here. Sequences can lack the tags named with a protein.

Target: T1, wild-type α-COP (α-COP-FLAG), transfected in HEK293T (mouse) (UniProt Q8CIE6)
T1 sequence: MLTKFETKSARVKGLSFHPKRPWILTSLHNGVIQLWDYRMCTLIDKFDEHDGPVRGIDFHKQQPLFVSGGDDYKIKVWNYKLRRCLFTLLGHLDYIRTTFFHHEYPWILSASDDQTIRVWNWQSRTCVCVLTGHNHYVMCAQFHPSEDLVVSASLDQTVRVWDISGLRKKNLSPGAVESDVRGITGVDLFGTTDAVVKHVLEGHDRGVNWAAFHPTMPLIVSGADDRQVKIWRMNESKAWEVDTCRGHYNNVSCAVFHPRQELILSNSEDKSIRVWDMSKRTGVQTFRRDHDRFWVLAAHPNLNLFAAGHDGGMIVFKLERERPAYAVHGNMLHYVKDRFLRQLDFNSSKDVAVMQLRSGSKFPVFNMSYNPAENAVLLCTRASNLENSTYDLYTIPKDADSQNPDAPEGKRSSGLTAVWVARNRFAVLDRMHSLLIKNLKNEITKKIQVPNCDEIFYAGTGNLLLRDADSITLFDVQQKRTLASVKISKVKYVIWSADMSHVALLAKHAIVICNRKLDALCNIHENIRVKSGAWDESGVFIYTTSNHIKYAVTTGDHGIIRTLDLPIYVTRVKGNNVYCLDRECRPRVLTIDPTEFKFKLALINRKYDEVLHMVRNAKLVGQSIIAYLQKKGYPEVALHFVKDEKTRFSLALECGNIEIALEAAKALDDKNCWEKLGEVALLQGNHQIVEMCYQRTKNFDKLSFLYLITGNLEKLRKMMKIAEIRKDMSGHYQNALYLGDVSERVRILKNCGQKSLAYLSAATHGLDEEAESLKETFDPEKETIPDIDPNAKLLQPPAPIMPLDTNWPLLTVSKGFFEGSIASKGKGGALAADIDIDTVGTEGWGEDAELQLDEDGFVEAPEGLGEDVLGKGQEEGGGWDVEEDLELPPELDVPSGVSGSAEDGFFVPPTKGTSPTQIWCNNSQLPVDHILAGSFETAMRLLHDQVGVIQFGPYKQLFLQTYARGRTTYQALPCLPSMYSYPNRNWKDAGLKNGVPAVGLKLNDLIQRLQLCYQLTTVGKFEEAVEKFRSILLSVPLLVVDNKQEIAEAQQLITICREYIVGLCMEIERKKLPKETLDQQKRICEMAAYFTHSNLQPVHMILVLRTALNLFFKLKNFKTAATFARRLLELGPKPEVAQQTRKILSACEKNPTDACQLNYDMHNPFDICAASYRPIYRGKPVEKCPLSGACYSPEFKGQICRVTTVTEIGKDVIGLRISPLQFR
Assay: co-IP

B1: mutant Surf4 (K265A/K266A/K267A), transfected in HEK293T (protein, UniProt Q64310 1-269)
chain: MGQNDLMGTAEDFADQFLRVTKQYLPHVARLCLISTFLEDGIRMWFQWSEQRDYIDTTWSCGYLLASSFVFLNLLGQLTGCVLVLSRNFVQYACFGLFGIIALQTIAYSILWDLKFLMRNLALGGGLLLLLAESRSEGKSMFAGVPTMRESSPKQYMQLGGRVLLVLMFMTLLHFDASFFSIIQNIVGTALMILVAIGFKTKLAALTLVVWLFAINVYFNAFWTIPVYKPMHDFLKYDFFQTMSVIGGLLLVVALGPGGVSMDEAAAEW
binding: binds
